Measurements published in the supplement of paper PMC10849652.
This is one part of the list.

Amino acid sequences for entries named in this document (tags omitted). A change or cut given only in a name is not applied to a line headed by its entry.
UniProt Q7Z5L9: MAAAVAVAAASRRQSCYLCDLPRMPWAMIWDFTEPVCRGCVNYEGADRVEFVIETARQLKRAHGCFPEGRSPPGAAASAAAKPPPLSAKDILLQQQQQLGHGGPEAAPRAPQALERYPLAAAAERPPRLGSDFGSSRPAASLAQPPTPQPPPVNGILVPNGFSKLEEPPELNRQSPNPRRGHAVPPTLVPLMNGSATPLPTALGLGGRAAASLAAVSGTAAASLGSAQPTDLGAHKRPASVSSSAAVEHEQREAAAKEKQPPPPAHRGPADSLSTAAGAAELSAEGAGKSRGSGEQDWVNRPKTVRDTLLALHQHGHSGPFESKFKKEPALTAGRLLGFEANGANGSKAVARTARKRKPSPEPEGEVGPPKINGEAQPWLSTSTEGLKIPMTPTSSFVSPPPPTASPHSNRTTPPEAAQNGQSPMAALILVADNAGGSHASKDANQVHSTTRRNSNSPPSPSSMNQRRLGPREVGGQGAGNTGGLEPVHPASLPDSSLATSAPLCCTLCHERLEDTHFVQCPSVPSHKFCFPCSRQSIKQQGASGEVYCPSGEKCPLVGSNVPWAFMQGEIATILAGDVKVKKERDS
UniProt Q9P0J7: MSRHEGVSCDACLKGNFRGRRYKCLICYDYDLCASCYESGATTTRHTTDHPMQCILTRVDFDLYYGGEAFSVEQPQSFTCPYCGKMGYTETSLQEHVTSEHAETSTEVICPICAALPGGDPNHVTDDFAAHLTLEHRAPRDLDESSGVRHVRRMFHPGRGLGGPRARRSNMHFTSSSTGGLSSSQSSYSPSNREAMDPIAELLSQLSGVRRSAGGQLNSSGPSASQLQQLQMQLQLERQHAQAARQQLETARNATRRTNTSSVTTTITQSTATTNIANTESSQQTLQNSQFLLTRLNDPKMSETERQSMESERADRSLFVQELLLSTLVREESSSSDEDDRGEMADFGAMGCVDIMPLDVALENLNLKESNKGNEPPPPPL
UniProt O75449: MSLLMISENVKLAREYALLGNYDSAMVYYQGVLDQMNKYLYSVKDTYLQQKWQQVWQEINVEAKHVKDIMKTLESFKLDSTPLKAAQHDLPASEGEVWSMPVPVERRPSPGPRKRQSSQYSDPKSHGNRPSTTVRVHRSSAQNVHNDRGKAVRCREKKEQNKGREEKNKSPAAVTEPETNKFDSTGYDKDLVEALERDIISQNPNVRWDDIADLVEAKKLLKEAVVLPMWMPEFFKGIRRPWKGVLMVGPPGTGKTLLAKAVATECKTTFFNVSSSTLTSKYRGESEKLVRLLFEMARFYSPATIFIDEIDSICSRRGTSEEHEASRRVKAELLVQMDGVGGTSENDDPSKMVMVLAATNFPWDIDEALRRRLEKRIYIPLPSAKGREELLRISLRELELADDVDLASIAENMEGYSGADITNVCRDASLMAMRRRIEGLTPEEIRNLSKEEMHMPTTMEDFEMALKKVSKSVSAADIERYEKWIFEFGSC
UniProt Q86U28: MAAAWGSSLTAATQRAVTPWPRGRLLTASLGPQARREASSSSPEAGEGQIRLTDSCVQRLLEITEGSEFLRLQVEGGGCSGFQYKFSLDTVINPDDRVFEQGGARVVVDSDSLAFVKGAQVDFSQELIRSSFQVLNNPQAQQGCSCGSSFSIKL
UniProt Q96SI1: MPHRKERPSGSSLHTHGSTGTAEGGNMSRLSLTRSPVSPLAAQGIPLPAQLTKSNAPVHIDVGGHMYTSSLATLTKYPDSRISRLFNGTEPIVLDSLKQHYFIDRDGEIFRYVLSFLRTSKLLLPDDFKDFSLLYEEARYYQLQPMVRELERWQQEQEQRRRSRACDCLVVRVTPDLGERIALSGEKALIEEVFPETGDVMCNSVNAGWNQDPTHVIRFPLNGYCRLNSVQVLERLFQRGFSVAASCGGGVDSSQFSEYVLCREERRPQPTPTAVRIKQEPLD
UniProt Q9H0H0, whole entry, looked up: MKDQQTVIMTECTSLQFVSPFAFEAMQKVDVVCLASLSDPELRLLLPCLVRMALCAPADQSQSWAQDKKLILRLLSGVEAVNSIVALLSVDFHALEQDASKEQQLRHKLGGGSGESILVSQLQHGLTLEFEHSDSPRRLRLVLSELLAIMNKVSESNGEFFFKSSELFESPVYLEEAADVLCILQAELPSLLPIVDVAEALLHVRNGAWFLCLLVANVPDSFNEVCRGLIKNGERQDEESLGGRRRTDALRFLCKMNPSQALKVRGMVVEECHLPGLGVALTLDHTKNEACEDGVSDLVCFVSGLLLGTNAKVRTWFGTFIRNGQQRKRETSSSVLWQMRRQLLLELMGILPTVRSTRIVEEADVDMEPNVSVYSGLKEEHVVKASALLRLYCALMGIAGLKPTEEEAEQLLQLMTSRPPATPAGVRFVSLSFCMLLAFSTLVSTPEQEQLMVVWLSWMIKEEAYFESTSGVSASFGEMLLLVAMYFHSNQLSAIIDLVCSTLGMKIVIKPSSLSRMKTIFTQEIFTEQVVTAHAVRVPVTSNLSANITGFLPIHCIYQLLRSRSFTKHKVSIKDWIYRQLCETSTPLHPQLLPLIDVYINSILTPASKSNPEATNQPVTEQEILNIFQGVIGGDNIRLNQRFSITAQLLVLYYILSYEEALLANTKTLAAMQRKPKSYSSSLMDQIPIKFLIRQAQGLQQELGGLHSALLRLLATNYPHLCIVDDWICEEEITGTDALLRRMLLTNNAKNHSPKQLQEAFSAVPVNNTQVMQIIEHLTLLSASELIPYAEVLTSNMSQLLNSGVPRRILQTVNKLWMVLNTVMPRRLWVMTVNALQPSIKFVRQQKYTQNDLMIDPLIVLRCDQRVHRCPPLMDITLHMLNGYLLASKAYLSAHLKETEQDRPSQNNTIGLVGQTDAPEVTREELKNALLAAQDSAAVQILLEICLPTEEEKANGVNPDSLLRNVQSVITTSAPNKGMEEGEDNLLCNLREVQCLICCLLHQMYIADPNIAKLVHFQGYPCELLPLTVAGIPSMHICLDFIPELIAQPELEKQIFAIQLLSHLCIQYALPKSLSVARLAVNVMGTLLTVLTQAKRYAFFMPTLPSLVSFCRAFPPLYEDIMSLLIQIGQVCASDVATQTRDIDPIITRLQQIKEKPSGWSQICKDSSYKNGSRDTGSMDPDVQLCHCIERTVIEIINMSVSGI
UniProt Q969R8: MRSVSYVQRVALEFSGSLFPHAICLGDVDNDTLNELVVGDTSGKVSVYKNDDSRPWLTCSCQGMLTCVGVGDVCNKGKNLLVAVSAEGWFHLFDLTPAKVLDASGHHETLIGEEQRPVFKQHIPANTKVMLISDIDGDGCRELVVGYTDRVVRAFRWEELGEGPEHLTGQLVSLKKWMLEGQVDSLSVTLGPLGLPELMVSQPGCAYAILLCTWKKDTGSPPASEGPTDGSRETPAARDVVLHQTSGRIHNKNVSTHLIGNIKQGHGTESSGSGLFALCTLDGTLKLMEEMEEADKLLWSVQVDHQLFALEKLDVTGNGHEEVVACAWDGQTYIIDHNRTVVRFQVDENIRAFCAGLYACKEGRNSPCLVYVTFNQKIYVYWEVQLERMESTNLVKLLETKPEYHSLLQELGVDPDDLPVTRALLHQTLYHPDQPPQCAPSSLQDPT
UniProt Q9BVA0, whole entry, looked up: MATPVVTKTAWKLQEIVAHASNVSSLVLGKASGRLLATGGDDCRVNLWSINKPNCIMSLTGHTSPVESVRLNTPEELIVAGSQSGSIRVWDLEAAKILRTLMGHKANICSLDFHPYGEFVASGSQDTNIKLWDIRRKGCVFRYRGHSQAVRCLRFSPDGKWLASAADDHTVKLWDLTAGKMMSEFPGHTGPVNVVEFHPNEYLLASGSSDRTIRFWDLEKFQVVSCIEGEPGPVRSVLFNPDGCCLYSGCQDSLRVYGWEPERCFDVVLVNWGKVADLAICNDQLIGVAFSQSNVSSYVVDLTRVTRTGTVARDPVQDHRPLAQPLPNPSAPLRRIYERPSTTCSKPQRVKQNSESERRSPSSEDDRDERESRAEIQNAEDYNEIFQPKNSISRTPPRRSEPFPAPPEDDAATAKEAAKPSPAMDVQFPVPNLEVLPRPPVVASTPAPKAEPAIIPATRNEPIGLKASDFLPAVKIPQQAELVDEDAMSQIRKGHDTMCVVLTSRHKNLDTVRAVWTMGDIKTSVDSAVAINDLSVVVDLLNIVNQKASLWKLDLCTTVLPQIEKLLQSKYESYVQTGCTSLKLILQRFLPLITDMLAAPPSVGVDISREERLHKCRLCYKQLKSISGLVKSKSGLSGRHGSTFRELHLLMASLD
UniProt O15397, whole entry, looked up: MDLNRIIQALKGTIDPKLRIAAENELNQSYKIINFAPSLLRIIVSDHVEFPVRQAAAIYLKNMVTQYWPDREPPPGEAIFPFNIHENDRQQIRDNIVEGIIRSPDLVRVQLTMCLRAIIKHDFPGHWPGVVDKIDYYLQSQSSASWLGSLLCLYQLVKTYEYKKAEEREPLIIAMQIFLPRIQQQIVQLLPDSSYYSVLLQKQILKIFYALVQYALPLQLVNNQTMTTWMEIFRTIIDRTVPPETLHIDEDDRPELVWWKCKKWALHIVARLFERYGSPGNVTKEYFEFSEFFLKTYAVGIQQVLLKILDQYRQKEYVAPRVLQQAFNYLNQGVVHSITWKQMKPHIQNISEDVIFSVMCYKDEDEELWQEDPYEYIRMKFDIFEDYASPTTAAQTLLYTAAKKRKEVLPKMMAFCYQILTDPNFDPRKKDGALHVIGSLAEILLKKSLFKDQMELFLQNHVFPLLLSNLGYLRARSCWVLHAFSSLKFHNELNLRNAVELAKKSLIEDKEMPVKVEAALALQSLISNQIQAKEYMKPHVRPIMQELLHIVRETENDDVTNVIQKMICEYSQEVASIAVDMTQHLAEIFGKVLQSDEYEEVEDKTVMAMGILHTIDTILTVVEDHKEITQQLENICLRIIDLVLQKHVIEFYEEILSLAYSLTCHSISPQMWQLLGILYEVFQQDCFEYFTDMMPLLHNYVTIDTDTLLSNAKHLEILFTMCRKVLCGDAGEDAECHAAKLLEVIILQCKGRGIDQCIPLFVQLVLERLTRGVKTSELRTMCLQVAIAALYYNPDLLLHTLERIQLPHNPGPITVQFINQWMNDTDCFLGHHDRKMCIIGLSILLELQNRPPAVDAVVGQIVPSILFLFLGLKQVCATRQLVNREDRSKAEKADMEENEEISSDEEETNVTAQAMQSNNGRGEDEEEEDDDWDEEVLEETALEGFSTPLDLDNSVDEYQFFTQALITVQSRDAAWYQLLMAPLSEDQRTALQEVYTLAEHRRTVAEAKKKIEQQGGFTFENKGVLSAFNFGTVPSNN
UniProt P14316: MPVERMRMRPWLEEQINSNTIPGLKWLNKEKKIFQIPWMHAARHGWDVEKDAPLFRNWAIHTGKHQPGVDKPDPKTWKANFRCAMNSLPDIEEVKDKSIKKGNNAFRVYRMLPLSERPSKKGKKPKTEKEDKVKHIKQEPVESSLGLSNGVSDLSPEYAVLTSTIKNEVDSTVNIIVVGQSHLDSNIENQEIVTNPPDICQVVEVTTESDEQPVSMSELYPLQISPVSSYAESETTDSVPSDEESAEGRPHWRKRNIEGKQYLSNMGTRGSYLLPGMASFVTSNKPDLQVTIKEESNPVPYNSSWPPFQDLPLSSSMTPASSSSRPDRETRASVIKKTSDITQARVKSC
UniProt P18084: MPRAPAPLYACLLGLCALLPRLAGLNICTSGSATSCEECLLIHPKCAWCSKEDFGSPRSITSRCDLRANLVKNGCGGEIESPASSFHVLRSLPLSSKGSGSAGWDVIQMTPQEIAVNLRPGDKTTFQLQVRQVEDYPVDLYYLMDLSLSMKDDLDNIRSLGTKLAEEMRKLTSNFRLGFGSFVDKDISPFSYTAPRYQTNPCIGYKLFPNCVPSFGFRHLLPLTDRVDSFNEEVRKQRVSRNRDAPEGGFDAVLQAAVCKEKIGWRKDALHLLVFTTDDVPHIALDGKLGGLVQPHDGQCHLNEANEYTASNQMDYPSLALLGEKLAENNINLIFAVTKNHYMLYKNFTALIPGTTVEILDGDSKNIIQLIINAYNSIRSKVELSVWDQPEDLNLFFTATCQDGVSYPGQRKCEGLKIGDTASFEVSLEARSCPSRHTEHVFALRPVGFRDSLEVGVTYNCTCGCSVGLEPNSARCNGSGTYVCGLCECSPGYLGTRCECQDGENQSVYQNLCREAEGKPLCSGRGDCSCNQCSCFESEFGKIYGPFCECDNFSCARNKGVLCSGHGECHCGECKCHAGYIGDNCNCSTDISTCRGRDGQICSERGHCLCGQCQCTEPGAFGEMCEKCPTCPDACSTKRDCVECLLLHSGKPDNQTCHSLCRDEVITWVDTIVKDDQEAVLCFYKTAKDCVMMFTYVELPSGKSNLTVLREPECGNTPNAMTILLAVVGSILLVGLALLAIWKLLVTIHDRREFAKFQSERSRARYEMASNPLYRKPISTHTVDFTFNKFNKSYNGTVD

Assays:
Assay in all cases: log2 fold change, soluble protein after heating vs DMSO (PISA); higher = thermal stabilisation; K562 lysate, 10 uM; active = over 0.2 and 3.5 SD of the protein, either way, in both replicates (recomputed)
vemurafenib = compound: CCCS(=O)(=O)Nc1ccc(F)c(C(=O)c2c[nH]c3ncc(-c4ccc(Cl)cc4)cc23)c1F [vemurafenib]
In short: (§1)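 Quantification was by TMTpro 16plex LC-MS/MS with equalised channel sums, applied to the supernatant after 21,000xg for 90 min. Samples were crude K562 extract at 1 mg/mL protein in PBS pH 7.4 with 1 mM MgCl2, treated with 10 μM compound for 30 min, heated for 3 min across 48°C-58°C, pooled and brought to 0.5% NP-40 at 4°C. Values are log-two fold changes in thermal stability relative to solvent controls, from duplicates.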

[1] = compound: CCCS(=O)(=O)Nc1ccc(F)c(C(=O)c2c[nH]c3ncc(Cl)cc23)c1F
In short: as §1

barasertib = compound: CCN(CCCOc1ccc2c(Nc3cc(CC(=O)Nc4cccc(F)c4)[nH]n3)ncnc2c1)CCOP(=O)(O)O [barasertib]
In short: as §1

[2] = compound: CC[C@@H]1C(=O)N(C)c2cnc(Nc3ccc(C(=O)NC4CCN(C)CC4)cc3OC)nc2N1C1CCCC1
In short: as §1

volasertib = compound: CC[C@@H]1C(=O)N(C)c2cnc(Nc3ccc(C(=O)N[C@H]4CC[C@H](N5CCN(CC6CC6)CC5)CC4)cc3OC)nc2N1C(C)C [volasertib]
In short: as §1

[3] = compound: CCn1c(C(=O)N(C2CC2)C2CC2)cc2c3c(ncn3C)c(Nc3cc(C)n(C)n3)nc21
In short: as §1

[4] = compound: CCn1cc(-c2ccnc3[nH]c(-c4cccc(CN(C)C)c4)cc23)c(-c2ccc(NC(=O)N(C)C)cc2)n1
In short: as §1

[5] = compound: CN1CCC(CNc2ccc3ncc(-c4cccc(OC(F)(F)F)c4)n3n2)CC1
In short: as §1

saracatinib = compound: CN1CCN(CCOc2cc(OC3CCOCC3)c3c(Nc4c(Cl)ccc5c4OCO5)ncnc3c2)CC1 [saracatinib]
In short: as §1

sotrastaurin = compound: CN1CCN(c2nc(C3=C(c4c[nH]c5ccccc45)C(=O)NC3=O)c3ccccc3n2)CC1 [sotrastaurin]
In short: as §1

alvocidib = compound: CN1CC[C@H](c2c(O)cc(O)c3c(=O)cc(-c4ccccc4Cl)oc23)[C@H](O)C1 [alvocidib]
In short: as §1

Tubastatin A = compound: CN1CCc2c(c3ccccc3n2Cc2ccc(C(=O)NO)cc2)C1 [Tubastatin A]
In short: as §1

[6] = compound: CNC(=O)C1=CC=CC=C1NC2=NC(=NC=C2Cl)NC3=C(C=C(C=C3)N4CCOCC4)OC
In short: as §1

defactinib = compound: CNC(=O)c1ccc(Nc2ncc(C(F)(F)F)c(NCc3nccnc3N(C)S(C)(=O)=O)n2)cc1 [defactinib]
In short: as §1

[7] = compound: CNc1nc(-c2ccc3c(N)n[nH]c3c2)cc(N2C[C@@H](C(=O)NC3CCCCC3)CC[C@H]2C)n1
In short: as §1

encorafenib = compound: COC(=O)N[C@@H](C)CNc1nccc(-c2cn(C(C)C)nc2-c2cc(Cl)cc(NS(C)(=O)=O)c2F)n1 [encorafenib]
In short: as §1

[8] = compound: COC(=O)[C@H](CCSC)NC(=O)C1=C(C=C(C=C1)NC[C@H](CS)N)C2=CC=CC=C2
In short: as §1

alisertib = compound: COc1cc(Nc2ncc3c(n2)-c2ccc(Cl)cc2C(c2c(F)cccc2OC)=NC3)ccc1C(=O)O [alisertib]
In short: as §1

[9] = compound: COc1cc2nc(-c3cc(F)ccc3O)nc(N[C@@H]3CNC[C@H]3C(C)(C)O)c2cc1OC
In short: as §1

gefitinib = compound: COc1cc2ncnc(Nc3ccc(F)c(Cl)c3)c2cc1OCCCN1CCOCC1 [gefitinib]
In short: as §1

Measured: log2 fold change

ITSN2 (UniProt Q9NZM3)
inactive: vemurafenib -0.035 | [1] -0.038 | barasertib 0.048 | [2] 0.046 | volasertib -0.072 | [3] -0.006 | [4] 0.041 | [5] -0.036 | saracatinib 0.046 | sotrastaurin -0.054 | alvocidib 0.017 | Tubastatin A -0.06 | [6] -0.029 | defactinib -0.016 | [7] 0.006 | encorafenib -0.021 | [8] 0.062 | alisertib 0.003 | [9] 0.056 | gefitinib -0.001

IRF2BP2 (UniProt Q7Z5L9)
inactive: vemurafenib -0.003 | [1] 0.024 | barasertib -0.023 | [2] 0.077 | volasertib 0.001 | [3] -0.01 | [4] 0.018 | [5] 0.067 | saracatinib 0.044 | sotrastaurin -0.004 | alvocidib -0.008 | Tubastatin A 0.023 | [6] 0.002 | defactinib 0.035 | [7] 0.055 | encorafenib 0.047 | [8] -0.063 | alisertib 0.001 | [9] 0.028 | gefitinib -0.024

KCMF1 (UniProt Q9P0J7)
inactive: vemurafenib -0.005 | [1] -0.012 | barasertib 0.021 | [2] 0.001 | volasertib 0.009 | [3] -0.029 | [4] -0.038 | [5] 0.035 | saracatinib 0.022 | sotrastaurin 0.001 | alvocidib -0.089 | Tubastatin A -0.012 | [6] -0.006 | defactinib 0.004 | [7] 0.094 | encorafenib -0.026 | [8] 0.046 | alisertib -0.013 | [9] -0.002 | gefitinib 0.009

KATNA1 (UniProt O75449)
inactive: vemurafenib 0.091 | [1] -0.002 | barasertib 0.033 | [2] 0.019 | volasertib -0.03 | [3] 0.007 | [4] 0.069 | [5] -0.077 | saracatinib -0.012 | sotrastaurin 0.049 | alvocidib -0.006 | Tubastatin A -0.021 | [6] -0.041 | defactinib -0.01 | [7] -0.065 | encorafenib 0.051 | [8] -0.008 | alisertib -0.031 | [9] 0.004 | gefitinib 0.052

ISCA2 (UniProt Q86U28)
inactive: vemurafenib -0.171 | [1] 0.03 | barasertib 0.091 | [2] -0.013 | volasertib -0.015 | [3] 0.011 | [4] -0.079 | [5] -0.014 | saracatinib -0.018 | sotrastaurin -0.009 | alvocidib 0 | Tubastatin A -0.004 | [6] 0.017 | defactinib 0 | [7] -0.004 | encorafenib 0.064 | [8] -0.003 | alisertib -0.057 | [9] -0.1 | gefitinib 0.074

KCTD15 (UniProt Q96SI1)
inactive: vemurafenib 0.016 | [1] -0.001 | barasertib -0.013 | [2] -0.081 | volasertib 0.002 | [3] 0.05 | [4] 0.035 | [5] 0.023 | saracatinib 0.011 | sotrastaurin -0.007 | alvocidib 0.017 | Tubastatin A -0.04 | [6] -0.015 | defactinib -0.017 | [7] -0.049 | encorafenib 0.095 | [8] -0.092 | alisertib -0.065 | [9] 0.009 | gefitinib 0.025

INTS2 (UniProt Q9H0H0)
inactive: vemurafenib -0.084 | [1] 0.081 | barasertib 0.043 | [2] -0.071 | volasertib -0.105 | [3] 0.028 | [4] 0.075 | [5] -0.034 | saracatinib -0.046 | sotrastaurin 0.042 | alvocidib 0.014 | Tubastatin A -0.001 | [6] 0.022 | defactinib 0.065 | [7] 0.091 | encorafenib -0.057 | [8] 0.097 | alisertib -0.001 | [9] 0.165 | gefitinib -0.039

ITFG2 (UniProt Q969R8)
inactive: vemurafenib 0.154 | [1] 0.012 | barasertib 0.031 | [2] -0.129 | volasertib -0.043 | [3] -0.026 | [4] -0.021 | [5] 0.024 | saracatinib -0.001 | sotrastaurin 0.025 | alvocidib -0.027 | Tubastatin A -0.076 | [6] -0.003 | defactinib 0 | [7] 0.013 | encorafenib 0.008 | [8] 0.003 | alisertib 0.02 | [9] 0.016 | gefitinib -0.003

JMJD6 isoform 3 (UniProt Q6NYC1)
inactive: vemurafenib 0.011 | [1] 0.01 | barasertib 0.006 | [2] -0.09 | volasertib 0.029 | [3] 0.009 | [4] 0.03 | [5] -0.032 | saracatinib 0.028 | sotrastaurin 0.015 | alvocidib 0.032 | Tubastatin A -0.048 | [6] -0.015 | defactinib 0.07 | [7] 0.008 | encorafenib 0.012 | [8] -0.033 | alisertib 0.019 | [9] -0.007 | gefitinib 0.023

KATNB1 (UniProt Q9BVA0)
inactive: vemurafenib -0.024 | [1] 0.001 | barasertib 0.032 | [2] -0.087 | volasertib -0.02 | [3] 0.049 | [4] 0.039 | [5] -0.026 | saracatinib -0.044 | sotrastaurin 0.019 | alvocidib -0.039 | Tubastatin A 0 | [6] -0.001 | defactinib -0.01 | [7] -0.056 | encorafenib 0.002 | [8] 0.032 | alisertib -0.017 | [9] -0.051 | gefitinib -0.074

Pulled one by one from the entries so far, 2 records:
JMJD6 isoform 3 (UniProt Q6NYC1)
inactive: vemurafenib 0.011 | [1] 0.01 | barasertib 0.006 | [2] -0.09 | volasertib 0.029 | [3] 0.009 | [4] 0.03 | [5] -0.032 | saracatinib 0.028 | sotrastaurin 0.015 | alvocidib 0.032 | Tubastatin A -0.048 | [6] -0.015 | defactinib 0.07 | [7] 0.008 | encorafenib 0.012 | [8] -0.033 | alisertib 0.019 | [9] -0.007 | gefitinib 0.023

ITSN2 (UniProt Q9NZM3)
inactive: vemurafenib -0.035 | [1] -0.038 | barasertib 0.048 | [2] 0.046 | volasertib -0.072 | [3] -0.006 | [4] 0.041 | [5] -0.036 | saracatinib 0.046 | sotrastaurin -0.054 | alvocidib 0.017 | Tubastatin A -0.06 | [6] -0.029 | defactinib -0.016 | [7] 0.006 | encorafenib -0.021 | [8] 0.062 | alisertib 0.003 | [9] 0.056 | gefitinib -0.001

(listing goes on)

IPO8 (UniProt O15397)
inactive: vemurafenib 0.014 | [1] 0.031 | barasertib 0.04 | [2] 0.012 | volasertib -0.048 | [3] 0.05 | [4] -0.021 | [5] -0.033 | saracatinib 0.004 | sotrastaurin 0.026 | alvocidib 0.026 | Tubastatin A -0.017 | [6] -0.015 | defactinib 0.011 | [7] -0.014 | encorafenib 0.018 | [8] 0.103 | alisertib -0.001 | [9] -0.027 | gefitinib -0.004

IPO13 (UniProt O94829)
inactive: vemurafenib -0.003 | [1] 0.012 | barasertib 0.068 | [2] -0.004 | volasertib -0.074 | [3] -0.003 | [4] 0.047 | [5] -0.064 | saracatinib 0.045 | sotrastaurin 0.048 | alvocidib 0.022 | Tubastatin A -0.046 | [6] 0.005 | defactinib 0 | [7] 0.021 | encorafenib 0.016 | [8] 0.009 | alisertib -0.01 | [9] -0.014 | gefitinib 0.024

IREB2 (UniProt P48200)
inactive: vemurafenib 0.006 | [1] 0.012 | barasertib -0.003 | [2] 0.013 | volasertib -0.072 | [3] -0.007 | [4] -0.022 | [5] -0.014 | saracatinib 0.003 | sotrastaurin 0.011 | alvocidib 0.011 | Tubastatin A -0.024 | [6] 0.019 | defactinib -0.034 | [7] -0.029 | encorafenib -0.02 | [8] 0.068 | alisertib -0.007 | [9] -0.02 | gefitinib 0.02

IRF2 (UniProt P14316)
inactive: vemurafenib -0.024 | [1] 0.057 | barasertib -0.051 | [2] 0.057 | volasertib 0.011 | [3] 0.038 | [4] 0.019 | [5] 0.053 | saracatinib -0.086 | sotrastaurin 0.086 | alvocidib -0.036 | Tubastatin A 0.043 | [6] 0.034 | defactinib 0.052 | [7] -0.003 | encorafenib -0.018 | [8] -0.045 | alisertib -0.047 | [9] -0.061 | gefitinib -0.035

ITGB5 (UniProt P18084)
inactive: vemurafenib 0.069 | [1] -0.007 | barasertib 0.027 | [2] 0.035 | volasertib 0.026 | [3] 0.001 | [4] -0.073 | [5] 0.05 | saracatinib -0.026 | sotrastaurin -0.011 | alvocidib 0 | Tubastatin A -0.017 | [6] -0.002 | defactinib -0.011 | [7] 0.018 | encorafenib -0.025 | [8] 0.002 | alisertib 0.016 | [9] 0.018 | gefitinib -0.011

ITPA (UniProt Q9BY32)
inactive: vemurafenib 0.057 | [1] 0.013 | barasertib 0.004 | [2] 0 | volasertib -0.01 | [3] -0.022 | [4] -0.038 | [5] 0.08 | saracatinib 0.005 | sotrastaurin -0.05 | alvocidib -0.049 | Tubastatin A 0.026 | [6] -0.028 | defactinib -0.012 | [7] 0.056 | encorafenib -0.032 | [8] 0.009 | alisertib -0.008 | [9] 0.053 | gefitinib -0.052
